Measured values from doi:10.1101/2019.12.20.884809.
Where two headings read alike, the source gives them in different places. These are yes or no findings as the source states them, for the method shown. Binding seen in cells or lysates may run through a third protein. Some results given as binding are weak or reduced against the parent protein; the word gives no strength.

The chains behind the UniProt entries cited, without tags or fusion partners.
UniProt Q99497: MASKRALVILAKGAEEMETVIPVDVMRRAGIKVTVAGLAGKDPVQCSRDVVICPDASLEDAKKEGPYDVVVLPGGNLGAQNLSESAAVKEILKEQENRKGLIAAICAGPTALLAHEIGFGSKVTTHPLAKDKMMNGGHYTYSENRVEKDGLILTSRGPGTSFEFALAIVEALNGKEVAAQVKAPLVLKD

Tests used:
[1] = molecular target: PARK7/DJ-1 (human (endogenous in primary Tregs/Teffs)) (UniProt Q99497); assay: co-IP
[2] = molecular target: PARK7/DJ-1 (human (endogenous in primary Tregs/Teffs)) (UniProt Q99497); assay: co-IP; remark: listed apart in the source

B1: pyruvate dehydrogenase (lipoamide) beta (protein, UniProt P11177 31-359)
chain: LQVTVRDAINQGMDEELERDEKVFLLGEEVAQYDGAYKVSRGLWKKYGDKRIIDTPISEMGFAGIAVGAAMAGLRPICEFMTFNFSMQAIDQVINSAAKTYYMSGGLQPVPIVFRGPNGASAGVAAQHSQCFAAWYGHCPGLKVVSPWNSEDAKGLIKSAIRDNNPVVVLENELMYGVPFEFPPEAQSKDFLIPIGKAKIERQGTHITVVSHSRPVGHCLEAAAVLSKEGVECEVINMRTIRPMDMETIEASVMKTNHLVTVEGGWPQFGVGAEICARIMEGPAFNFLDAPAVRVTGADVPMPYAKILEDNSIPQVKDIIFAIKKTLNI
binding [1]: binds weakly
binding [2]: binds
